Results deposited as PubChem BioAssay AID1259405 (NCATS, 2018).
In all, the deposit lists about 50,000 reagents; shown is a part drawn at random. About 4,000 of them (8%) count as active. 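Mouse siRNA library applied to hamster cells; one well for each siRNA.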 Entries without a mark were called inactive. Reagents against one gene are numbered here.

Aim: 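Mouse-designed siRNAs used to find CHO productivity engineering targets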 (primary screen)
Cells: Chinese hamster CHO-K1 ovary cells with stable secreted eGFP expression
Reagents: single siRNA against mouse genes, 0.8 pmol siRNA per well (2 µl of 400 nM stock)
Time to read-out: 3 days
Read-out: 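Percent of the per-plate non-targeting control median for intracellular GFP per well by laser scanning cytometry and for cell viability by ATP luminescence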
Scale: GFP, % of control: higher = more GFP per well, higher productivity; viability (ATP), % of control: higher = more viable cells (more ATP)
Hit rule: 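Called active when intracellular GFP, relative to negative control, is at or above 120%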

Mat2b #1
- GFP, % of control: 99.7
- viability (ATP), % of control: 85.9

Mat2b #2
- GFP, % of control: 72.9
- viability (ATP), % of control: 57.8

Mat2b #3
- GFP, % of control: 50.2
- viability (ATP), % of control: 75.8

Syt3 (synaptotagmin III) #1
- GFP, % of control: 53
- viability (ATP), % of control: 101

Syt3 (synaptotagmin III) #2
- GFP, % of control: 87.5
- viability (ATP), % of control: 94.2

Zfp202 (zinc finger protein 202) #1
- GFP, % of control: 111
- viability (ATP), % of control: 80.5

Zfp202 (zinc finger protein 202) #2
- GFP, % of control: 101
- viability (ATP), % of control: 120

Zfp202 (zinc finger protein 202) #3
- GFP, % of control: 82.8
- viability (ATP), % of control: 92.2

Atp6v1f (ATPase, H+ transporting, lysosomal V1 subunit F) #1
- GFP, % of control: 76.4
- viability (ATP), % of control: 120

Atp6v1f (ATPase, H+ transporting, lysosomal V1 subunit F) #2
- GFP, % of control: 132 (active)
- viability (ATP), % of control: 140

Atp6v1f (ATPase, H+ transporting, lysosomal V1 subunit F) #3
- GFP, % of control: 96.5
- viability (ATP), % of control: 83.6

Or1e1c (olfactory receptor family 1 subfamily E member 1C) #1
- GFP, % of control: 118
- viability (ATP), % of control: 70.8

Or1e1c (olfactory receptor family 1 subfamily E member 1C) #2
- GFP, % of control: 73.6
- viability (ATP), % of control: 59.4

Or1e1c (olfactory receptor family 1 subfamily E member 1C) #3
- GFP, % of control: 58.3
- viability (ATP), % of control: 111

Tekt1 (tektin 1) #1
- GFP, % of control: 45.4
- viability (ATP), % of control: 41.5

Tekt1 (tektin 1) #2
- GFP, % of control: 66.6
- viability (ATP), % of control: 83.9

Scpep1 (serine carboxypeptidase 1) #1
- GFP, % of control: 94.9
- viability (ATP), % of control: 86.4

Scpep1 (serine carboxypeptidase 1) #2
- GFP, % of control: 60.6
- viability (ATP), % of control: 106

Scpep1 (serine carboxypeptidase 1) #3
- GFP, % of control: 146 (active)
- viability (ATP), % of control: 162

Orm3 (orosomucoid 3) #1
- GFP, % of control: 99
- viability (ATP), % of control: 63.7

Orm3 (orosomucoid 3) #2
- GFP, % of control: 50.1
- viability (ATP), % of control: 60.9

Orm3 (orosomucoid 3) #3
- GFP, % of control: 101
- viability (ATP), % of control: 141

Klhdc4 (kelch domain containing 4) #1
- GFP, % of control: 64.1
- viability (ATP), % of control: 80.8

Klhdc4 (kelch domain containing 4) #2
- GFP, % of control: 79
- viability (ATP), % of control: 46.8

Klhdc4 (kelch domain containing 4) #3
- GFP, % of control: 107
- viability (ATP), % of control: 83.6

Cd53 (CD53 antigen) #1
- GFP, % of control: 76.8
- viability (ATP), % of control: 62.7

Cd53 (CD53 antigen) #2
- GFP, % of control: 81.7
- viability (ATP), % of control: 74

Cd53 (CD53 antigen) #3
- GFP, % of control: 135 (active)
- viability (ATP), % of control: 48

Records listed so far marked active, once more:
Atp6v1f (ATPase, H+ transporting, lysosomal V1 subunit F) #2
- GFP, % of control: 132 (active)
- viability (ATP), % of control: 140

Scpep1 (serine carboxypeptidase 1) #3
- GFP, % of control: 146 (active)
- viability (ATP), % of control: 162

Cd53 (CD53 antigen) #3
- GFP, % of control: 135 (active)
- viability (ATP), % of control: 48
